Data reported in patent US20190315872A1.
These are yes or no findings as the source states them, for the method shown. Some binding calls cover weakened binding; strength is not graded here.

Chains of the proteins cited; added tags and fusions are not shown. Lines headed by an entry give the natural chain unless they say otherwise; changes in a name come on top.
UniProt P08581: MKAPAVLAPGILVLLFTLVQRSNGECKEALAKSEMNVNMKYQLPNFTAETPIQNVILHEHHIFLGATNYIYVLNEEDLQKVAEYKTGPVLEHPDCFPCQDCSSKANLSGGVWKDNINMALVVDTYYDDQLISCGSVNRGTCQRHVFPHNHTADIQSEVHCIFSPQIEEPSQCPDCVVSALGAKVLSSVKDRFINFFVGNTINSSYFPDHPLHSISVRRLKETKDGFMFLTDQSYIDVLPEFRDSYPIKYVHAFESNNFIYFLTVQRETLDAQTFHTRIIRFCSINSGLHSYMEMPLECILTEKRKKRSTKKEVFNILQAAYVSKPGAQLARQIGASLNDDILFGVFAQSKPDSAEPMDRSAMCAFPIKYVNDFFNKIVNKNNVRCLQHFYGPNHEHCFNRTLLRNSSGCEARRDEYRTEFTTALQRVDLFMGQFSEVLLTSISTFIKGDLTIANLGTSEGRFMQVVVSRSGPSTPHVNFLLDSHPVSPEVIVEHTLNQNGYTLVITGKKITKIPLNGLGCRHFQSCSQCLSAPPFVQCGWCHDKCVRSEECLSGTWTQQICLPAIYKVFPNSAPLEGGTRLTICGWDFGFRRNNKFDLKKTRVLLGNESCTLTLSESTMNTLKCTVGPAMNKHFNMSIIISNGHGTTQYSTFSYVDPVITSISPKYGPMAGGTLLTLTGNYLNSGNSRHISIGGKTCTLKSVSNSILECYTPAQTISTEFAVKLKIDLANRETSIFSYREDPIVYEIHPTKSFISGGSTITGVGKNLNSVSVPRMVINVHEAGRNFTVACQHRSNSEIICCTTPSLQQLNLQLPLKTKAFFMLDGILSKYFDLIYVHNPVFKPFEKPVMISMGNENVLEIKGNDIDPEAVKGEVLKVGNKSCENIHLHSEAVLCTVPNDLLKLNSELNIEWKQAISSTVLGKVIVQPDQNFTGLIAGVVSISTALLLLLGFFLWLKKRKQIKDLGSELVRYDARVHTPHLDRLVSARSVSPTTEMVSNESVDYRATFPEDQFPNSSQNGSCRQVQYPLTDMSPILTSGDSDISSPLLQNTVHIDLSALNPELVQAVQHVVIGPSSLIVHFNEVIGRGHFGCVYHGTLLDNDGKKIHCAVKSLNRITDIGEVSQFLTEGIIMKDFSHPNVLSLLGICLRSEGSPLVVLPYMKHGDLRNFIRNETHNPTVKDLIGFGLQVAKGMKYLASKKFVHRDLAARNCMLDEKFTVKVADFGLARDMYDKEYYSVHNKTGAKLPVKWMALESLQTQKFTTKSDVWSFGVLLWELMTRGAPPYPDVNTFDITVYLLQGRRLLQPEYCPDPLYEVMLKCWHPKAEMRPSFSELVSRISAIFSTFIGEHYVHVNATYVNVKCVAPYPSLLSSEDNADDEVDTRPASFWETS
UniProt P16056: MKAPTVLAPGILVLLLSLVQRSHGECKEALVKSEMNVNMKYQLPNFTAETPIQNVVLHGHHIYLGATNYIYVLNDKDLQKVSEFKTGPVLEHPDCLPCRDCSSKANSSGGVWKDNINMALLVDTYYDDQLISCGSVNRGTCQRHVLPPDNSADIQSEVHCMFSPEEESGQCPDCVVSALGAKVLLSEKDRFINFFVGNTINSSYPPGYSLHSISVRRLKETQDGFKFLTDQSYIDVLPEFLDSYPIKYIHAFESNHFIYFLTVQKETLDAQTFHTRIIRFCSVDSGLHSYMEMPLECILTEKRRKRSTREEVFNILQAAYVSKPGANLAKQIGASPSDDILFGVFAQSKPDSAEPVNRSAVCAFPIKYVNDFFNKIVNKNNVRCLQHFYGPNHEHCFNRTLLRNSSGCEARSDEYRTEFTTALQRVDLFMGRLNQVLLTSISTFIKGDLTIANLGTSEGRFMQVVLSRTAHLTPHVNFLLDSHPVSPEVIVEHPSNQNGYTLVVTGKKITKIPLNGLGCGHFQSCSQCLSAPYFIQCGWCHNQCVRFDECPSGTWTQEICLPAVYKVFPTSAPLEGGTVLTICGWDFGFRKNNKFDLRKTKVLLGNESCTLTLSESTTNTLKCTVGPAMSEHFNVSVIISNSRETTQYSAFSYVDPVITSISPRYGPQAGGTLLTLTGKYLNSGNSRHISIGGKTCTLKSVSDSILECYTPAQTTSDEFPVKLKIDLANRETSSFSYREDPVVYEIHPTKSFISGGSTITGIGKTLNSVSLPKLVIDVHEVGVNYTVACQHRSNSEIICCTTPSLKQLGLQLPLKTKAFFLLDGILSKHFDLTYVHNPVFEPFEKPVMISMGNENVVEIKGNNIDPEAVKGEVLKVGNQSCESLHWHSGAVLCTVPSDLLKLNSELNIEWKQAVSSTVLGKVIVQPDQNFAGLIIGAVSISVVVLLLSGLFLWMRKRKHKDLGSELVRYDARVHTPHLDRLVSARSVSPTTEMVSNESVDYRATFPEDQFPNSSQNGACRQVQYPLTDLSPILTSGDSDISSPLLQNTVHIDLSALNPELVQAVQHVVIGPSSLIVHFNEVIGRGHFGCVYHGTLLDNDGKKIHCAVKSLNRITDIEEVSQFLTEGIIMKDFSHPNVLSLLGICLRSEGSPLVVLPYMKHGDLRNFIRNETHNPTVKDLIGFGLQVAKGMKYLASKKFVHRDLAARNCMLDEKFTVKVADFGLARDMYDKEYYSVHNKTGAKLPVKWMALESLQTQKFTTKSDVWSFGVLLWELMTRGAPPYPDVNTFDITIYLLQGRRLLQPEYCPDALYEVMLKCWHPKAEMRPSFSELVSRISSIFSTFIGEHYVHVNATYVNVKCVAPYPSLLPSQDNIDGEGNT

Experiments:
Human c-Met (human) [1] = biological target: Human c-Met (human) (UniProt P08581); assay: phage display biopanning on human c-Met (summary of PCT/KR2015/007899)
Human c-Met (human) [2] = biological target: Human c-Met (human) (UniProt P08581); assay: BIAcore (SPR)
Mouse c-Met (mouse) = Mouse c-Met (mouse) (UniProt P16056); assay: BIAcore (SPR)

| binding (Human c-Met (human) [1]) | binding (Human c-Met (human) [2]) | binding (Mouse c-Met (mouse)) | Binder |
| --- | --- | --- | --- |
| binds | – | – | 1E4 scFv (scFv) scFv: QVQLVQSGAEVKKPGESLRISCQGSGYSFPTHWITWVRQMPGKGLEWMGTIDPTDSYNFYGPSFQGHVTISADSSSSTAYLQWSSLKASDTAMYYCARDGNYYDSRGYYYDTFDMWGQGTLVTVSSGLGGLGGGGSGGGGSGGSSGVGSDIQMTQSPSFLSASVGDRVTITCRASQGISTYLAWYQQKPGTAPKLLIYSASTLESGVPSRFSGSGSGTDFTLTISSLQPEDSATYYCQQADSFPLTFGGGTKVEIKRGGASLVE |
| – | binds | binds | 1E4 IgG1 antibody (antibody, V domains shown) VH: QVQLVQSGAEVKKPGESLRISCQGSGYSFPTHWITWVRQMPGKGLEWMGTIDPTDSYNFYGPSFQGHVTISADSSSSTAYLQWSSLKASDTAMYYCARDGNYYDSRGYYYDTFDMWGQGTLVTVSS VL: DIQMTQSPSFLSASVGDRVTITCRASQGISTYLAWYQQKPGTAPKLLIYSASTLESGVPSRFSGSGSGTDFTLTISSLQPEDSATYYCQQADSFPLTFGGGTKVEIKR |
